Measured values published in patent US9315829B2, “Methods for intracellular delivery of nucleic acids” (UNIVERSITE PARIS DESCARTES, priority 2010, dated 2016).
At least one compound was matched to its structure with a doubt left.

Columns and labels:
tibialis anterior muscle [1] = experiment: β-galactosidase expression in tibialis anterior muscle after injection of pVAX1-LacZ (Example 6); type: in vivo, rat; settings: rats; intramuscular pre-injection 100 μl 15-30 min before 100 μg pVAX1-LacZ; day 5; X-gal staining
tibialis anterior muscle [2] = experiment: Luciferase expression in tibialis anterior muscle after injection of naked pVAX2-Luc (Example 6); type: in vivo, mouse; settings: mice; intramuscular pre-injection 30 μl 30 min before 30 μg pVAX2-Luc; day 7
ciliary muscle [3] = experiment: hTNFR-Is expression in aqueous humor after transfection of the ciliary muscle with naked pVAX2-hTNFR-Is/mIgG1 (Example 4); type: in vivo, rat; settings: intramuscular pre-injection 10 μl at 20 mg/ml 60 min before 30 μg plasmid; day 7
ciliary muscle [4] = experiment: Luciferase expression in aqueous humor after transfection of the ciliary muscle with naked pGLuc (Example 5); type: in vivo, rat; settings: pre-injection 20 mg/ml (10 μl) 45 min before 15 μg pGLuc
Experimental: FIG. 6: Illustrates the intracellular delivery of naked plasmids to a smooth muscle, the ciliary muscle, and subsequent gene expression in ocular media. Intramuscular pre-injection of triamcinolone acetonide (TA) or anecortave acetate (AA) at 20 mg/ml (10 μl) was carried out 45 min before intramuscular injection of the naked plasmid pGLuc (15 μg in 10 μl in NaCl 0.45%). No transfection or water instead of corticosteroid was used as control. Luminescence is expressed in counts/s (cps). The results are expressed as the mean±sem of 4 to 6 independent experiments.
To reach the ciliary muscle located below the sclera posterior to the limbus, the intra ciliary muscle injection was carried out through a tunneled corneal incision. When the needle had crossed the limbus, it was inserted slightly deeper for a distance of 1 mm and the solutions were injected.
Rats receiving injection of pGLuc in the ciliary muscle were sacrificed on day 7 after treatment. Intraocular fluids were collected on enucleated eyes, clarified by centrifugation and the supernatants stored at −20° C. until tested.
The luciferase activity was assessed on 10 μl of sample (tissue lysate supernatant or ocular fluid) placed in a white 96 wells plate. […]

Compound	gene expression of β-galactosidase (tibialis anterior muscle [1])	gene expression of Luciferase (tibialis anterior muscle [2])	level of expression of hTNFR-Is compared with that obtained with ET (ciliary muscle [3])	level of expression of hTNFR-Is in the aqueous humor compared with naked plasmid alone (ciliary muscle [3])	level of expression of Luciferase in the aqueous humor compared to naked plasmid alone (ciliary muscle [4])
C[C@@H]1C[C@H]2[C@@H]3CCC4=CC(=O)C=C[C@]4(C)[C@@]3(F)[C@@H](O)C[C@]2(C)[C@@]1(O)C(=O)CO [DEX, dexamethasone]	dramatically improved	dramatically improved			
CC1(C)O[C@@H]2C[C@H]3[C@@H]4CCC5=CC(=O)C=C[C@]5(C)[C@@]4(F)[C@@H](O)C[C@]3(C)[C@]2(C(=O)CO)O1 [TA, triamcinolone acetonide]			comparable	dramatically improve	dramatically improve
